According to patent US20100317703A1, “METHOD FOR INHIBITING BRASSININ OXIDASE” (UNIVERSITY OF SASKATCHEWAN, priority 2009, published 2010):
At least one compound was matched to its structure with a doubt left.

System: brassinin oxidase (BO)
Experiment: Inhibitory effect of paldoxins on purified BO (brassinin as substrate, HPLC-DAD)
Format: biochemical, Leptosphaeria maculans
Conditions: brassinin 0.10 mM, ± SD of four independent experiments
Experimental: For purification of brassinin oxidase, 600 mL of 48 h old liquid cultures prepared as described above, were incubated with 3-phenylindole (19, 0.05 mM final concentration in cultures to induce BO) for an additional 24 h and then gravity filtered to separate mycelia from culture broth. The mycelia was stored at −20° C. up to 72 h and used to obtain protein extracts containing BO activity.
The reaction mixture contained DEA (20 mM, pH 8.3), DTT (1 mM), 0.1% (v/v) Triton X-100, brassinin (1, 1.0 mM), phenazine (0.50 mM), and protein extract (50-100 μL) in a total volume of 500 μL. The reaction was carried out at 24° C. for 20 min. A control reaction was stopped by the addition of EtOAc (2 mL) at t=0. The product was extracted with EtOAc (2 mL) and concentrated to dryness. The extract was dissolved in CH3CN (200 μL) and analyzed by HPLC-DAD. The amounts of brassinin (1) and indole-3-carboxaldehyde (3) in the reaction assay were determined using calibration curves built with […]. One enzyme unit (U) is defined as the amount of the enzyme that catalyzes the conversion of one micromole of substrate per minute (μmol·min^−1=U).
The purification of BO was performed in four steps as previously described.^17 The purified enzyme was used for screening test compounds for inhibitory activity. To determine potential inhibitors of BO, inhibition experiments were carried out using brassinin (1, 0.10 mM final concentration) and test compounds (0.10 and 0.30 mM final concentrations). Standard deviation values for assays were determined from four independent experiments.
The inhibitory effects of test compounds on BO activity were tested at 0.10 mM and 0.30 mM using brassinin (1) as substrate (0.10 mM) and purified BO.

SMILES	Inhibiton (%) of BO (test compound 0.10 mM) [%]	Inhibiton (%) of BO (test compound 0.30 mM) [%]
c1ccc2c(-c3cnsc3)cccc2c1 [I(f), 1-naphthalenyl-isothiazole]	16 ± 4	21 ± 6
c1ccc2cc(-c3cnsc3)ccc2c1 [I(g)]	29 ± 2	42 ± 3
